In the supplement of paper PMC9015667:
Counter-ions that a name gives are not always drawn. The list shows a part of the results. Many values rest on one well or one pass, so single values are uncertain.

Tests used:
Test in all cases: reduction in cell viability relative to untreated/vehicle; higher = more growth inhibition
Settings in all cases: 200 nM; 72 h
[1] = system: M229P (parental melanoma line)
[2] = system: M229R (matched melanoma line resistant to BRAF inhibitors)
[3] = system: M238P (parental melanoma line)
[4] = system: M238R (matched melanoma line resistant to BRAF inhibitors)
[5] = system: M249P (parental melanoma line)
[6] = system: M249R (matched melanoma line resistant to BRAF inhibitors)
[7] = system: UACC62P (parental melanoma line)
[8] = system: UACC62R (matched melanoma line resistant to BRAF inhibitors)

| Structure (SMILES) | reduction in cell viability [1] | reduction in cell viability [2] | reduction in cell viability [3] | reduction in cell viability [4] | reduction in cell viability [5] | reduction in cell viability [6] | reduction in cell viability [7] | reduction in cell viability [8] |
| --- | --- | --- | --- | --- | --- | --- | --- | --- |
| COc1cc2c(cc1Cc1cccc(Cl)c1F)c(=O)c(C(=O)O)cn2[C@H](CO)C(C)C [Elvitegravir] | < 0% | < 0% | < 0% | < 0% | < 0% | < 0% | < 0% | < 0% |
| O=C(CCCN1CCN(c2ccc(F)cc2)CC1)NC1c2ccccc2CSc2ccccc21 (centres undefined) [Monatepil] | < 0% | < 0% | < 0% | < 0% | < 0% | < 0% | < 0% | < 0% |
| C[C@@H](Oc1ccc2[nH]nc(/C=C/c3cnn(CCO)c3)c2c1)c1c(Cl)cncc1Cl | < 0% | 27.7% | 22.5% | 23.7% | < 0% | < 0% | < 0% | 46.3% |
| C=CCn1c(=O)c2cnc(Nc3ccc(N4CCN(C)CC4)cc3)nc2n1-c1cccc(C(C)(C)O)n1 | 6.72% | 54.8% | 45% | < 0% | 43.1% | 50.4% | 36.1% | 63.4% |
| O=c1[nH]cnc2c1ncn2[C@H]1CC[C@@H](CO)O1 [2,3-Dideoxyinosine] | < 0% | < 0% | < 0% | < 0% | < 0% | 10.3% | < 0% | < 0% |
| Cc1cn([C@H]2C=C[C@@H](CO)O2)c(=O)[nH]c1=O [Stavudine] | < 0% | < 0% | < 0% | < 0% | < 0% | < 0% | < 0% | < 0% |
| CO[C@H]1O[C@@H]2O[C@@]3(C)CC[C@H]4[C@H](C)CC[C@@H]([C@H]1C)[C@@]24OO3 [Artemether] | < 0% | < 0% | < 0% | < 0% | < 0% | < 0% | 3.08% | < 0% |
| CN(C)C/C=C/C(=O)Nc1cc2c(Nc3ccc(F)c(Cl)c3)ncnc2cc1O[C@H]1CCOC1 [Afatinib] | < 0% | < 0% | < 0% | < 0% | < 0% | < 0% | < 0% | < 0% |
| Cc1ccc(NC(=O)c2cccc(N(C)C)c2)cc1NC(=O)c1ccc(O)cc1 | 0.31% | < 0% | < 0% | < 0% | < 0% | 17.6% | 1.66% | < 0% |
| CN1CCN(c2c(F)cc3c(=O)c(C(=O)O)cn4c3c2OCN4C)CC1 [Marbofloxacin] | < 0% | < 0% | < 0% | < 0% | < 0% | < 0% | < 0% | < 0% |
| NC(=O)c1cccc2cn(-c3ccc([C@@H]4CCCNC4)cc3)nc12 [Niraparib] | < 0% | < 0% | < 0% | < 0% | 2.75% | < 0% | < 0% | < 0% |
| FC(F)(F)c1ccc(Nc2nc3ccc(Oc4ccnc(-c5ncc(C(F)(F)F)[nH]5)c4)cc3[nH]2)cc1 [RAF-265 derivative] | < 0% | < 0% | < 0% | < 0% | < 0% | < 0% | < 0% | < 0% |
| COc1cc2c(cc1O)CC[C@@H]1[C@@H]2CC[C@]2(C)[C@@H](O)CC[C@@H]12 [2-Methoxyestradiol] | < 0% | 21.7% | 12.4% | < 0% | 1.15% | 25% | 24.4% | 8.08% |
| COc1cc([C@@H]2c3cc4c(cc3[C@@H](O[C@@H]3O[C@@H]5CO[C@@H](c6cccs6)O[C@H]5[C@H](O)[C@H]3O)[C@H]3COC(=O)[C@H]23)OCO4)cc(OC)c1O [Teniposide] | < 0% | 6.14% | 51.5% | 25.4% | 33.9% | 45.7% | 24.4% | 48.9% |
| CNC[C@H](O)c1cccc(O)c1 [Phenylephrine hydrochloride] | < 0% | < 0% | < 0% | < 0% | < 0% | 12.5% | < 0% | < 0% |
| N#CC1(c2cccc(C(=O)Nc3cc(Oc4ccc5nc(NC(=O)C6CC6)sc5n4)ccc3F)c2Cl)CC1 [Takeda-6d] | 17.9% | 19.6% | 26% | < 0% | 34.8% | 29% | 55.5% | 28.3% |
| COC1CCC(C(=O)c2ccc3nc4c(cc3c2)CCCO4)CC1 (centres undefined) | < 0% | < 0% | < 0% | < 0% | 5.45% | 6.58% | < 0% | < 0% |
| CC(=O)O[C@]1(C(C)=O)CC[C@H]2[C@@H]3C=C(Cl)C4=CC(=O)[C@@H]5C[C@@H]5[C@]4(C)[C@H]3CC[C@@]21C [Cyproterone acetate] | < 0% | < 0% | < 0% | < 0% | < 0% | < 0% | 7.84% | < 0% |

Taken from above:
Entry of CN1CCN(c2c(F)cc3c(=O)c(C(=O)O)cn4c3c2OCN4C)CC1 [Marbofloxacin] under reduction in cell viability [3]: < 0%
Entry of FC(F)(F)c1ccc(Nc2nc3ccc(Oc4ccnc(-c5ncc(C(F)(F)F)[nH]5)c4)cc3[nH]2)cc1 [RAF-265 derivative] under reduction in cell viability [7]: < 0%
